Test results published in the supplement of paper PMC10849652.
This is one part of the list.

Protein sequences, listed by entry. Tags and fused reporters are not part of them. Lines headed by an entry give the natural chain unless they say otherwise; changes in a name come on top.
UniProt Q8IZV5: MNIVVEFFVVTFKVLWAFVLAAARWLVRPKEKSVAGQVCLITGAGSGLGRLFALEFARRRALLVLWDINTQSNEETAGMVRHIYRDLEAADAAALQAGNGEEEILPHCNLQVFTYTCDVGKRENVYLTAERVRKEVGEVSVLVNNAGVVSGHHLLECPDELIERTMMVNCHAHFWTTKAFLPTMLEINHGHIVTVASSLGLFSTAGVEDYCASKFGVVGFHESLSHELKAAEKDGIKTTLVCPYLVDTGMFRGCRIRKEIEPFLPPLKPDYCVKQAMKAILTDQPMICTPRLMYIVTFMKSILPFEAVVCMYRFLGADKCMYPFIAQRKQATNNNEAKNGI
UniProt Q06330: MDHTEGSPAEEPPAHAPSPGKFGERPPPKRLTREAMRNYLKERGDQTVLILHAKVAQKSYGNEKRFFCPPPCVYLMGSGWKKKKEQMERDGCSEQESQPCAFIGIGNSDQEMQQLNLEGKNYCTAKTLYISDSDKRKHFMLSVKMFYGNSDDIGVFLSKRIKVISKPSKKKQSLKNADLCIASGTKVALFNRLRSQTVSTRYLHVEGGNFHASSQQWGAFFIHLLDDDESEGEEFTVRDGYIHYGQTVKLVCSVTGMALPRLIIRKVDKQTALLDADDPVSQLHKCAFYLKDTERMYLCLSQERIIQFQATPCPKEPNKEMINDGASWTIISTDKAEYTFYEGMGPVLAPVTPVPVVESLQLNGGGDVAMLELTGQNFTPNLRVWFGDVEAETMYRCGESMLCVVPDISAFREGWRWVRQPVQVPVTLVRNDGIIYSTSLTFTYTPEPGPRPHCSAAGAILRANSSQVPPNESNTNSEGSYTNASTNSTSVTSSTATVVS
UniProt Q96DM3: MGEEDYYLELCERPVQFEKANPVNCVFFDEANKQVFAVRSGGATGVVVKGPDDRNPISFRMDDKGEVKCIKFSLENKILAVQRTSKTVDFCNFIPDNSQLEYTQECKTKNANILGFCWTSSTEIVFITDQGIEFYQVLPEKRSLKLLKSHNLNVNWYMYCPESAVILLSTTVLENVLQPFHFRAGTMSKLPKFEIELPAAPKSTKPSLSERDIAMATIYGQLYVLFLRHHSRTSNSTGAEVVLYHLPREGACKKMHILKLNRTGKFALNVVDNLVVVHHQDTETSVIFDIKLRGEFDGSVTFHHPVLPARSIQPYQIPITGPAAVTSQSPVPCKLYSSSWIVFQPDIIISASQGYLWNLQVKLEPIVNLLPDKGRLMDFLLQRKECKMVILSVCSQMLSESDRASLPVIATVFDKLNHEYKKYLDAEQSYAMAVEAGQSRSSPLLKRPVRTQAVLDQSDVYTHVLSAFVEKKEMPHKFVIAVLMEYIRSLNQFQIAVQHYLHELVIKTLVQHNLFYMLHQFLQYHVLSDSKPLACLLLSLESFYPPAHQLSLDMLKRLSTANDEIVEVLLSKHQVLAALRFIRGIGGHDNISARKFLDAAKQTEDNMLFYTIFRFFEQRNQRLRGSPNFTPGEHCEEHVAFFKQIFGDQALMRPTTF
UniProt P61586, whole entry, looked up: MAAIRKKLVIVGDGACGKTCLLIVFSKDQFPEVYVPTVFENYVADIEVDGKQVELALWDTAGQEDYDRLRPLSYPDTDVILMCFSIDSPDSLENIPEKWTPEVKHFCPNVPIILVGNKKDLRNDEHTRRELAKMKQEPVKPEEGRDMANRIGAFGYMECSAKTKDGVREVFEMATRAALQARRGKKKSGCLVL
UniProt Q96DB5: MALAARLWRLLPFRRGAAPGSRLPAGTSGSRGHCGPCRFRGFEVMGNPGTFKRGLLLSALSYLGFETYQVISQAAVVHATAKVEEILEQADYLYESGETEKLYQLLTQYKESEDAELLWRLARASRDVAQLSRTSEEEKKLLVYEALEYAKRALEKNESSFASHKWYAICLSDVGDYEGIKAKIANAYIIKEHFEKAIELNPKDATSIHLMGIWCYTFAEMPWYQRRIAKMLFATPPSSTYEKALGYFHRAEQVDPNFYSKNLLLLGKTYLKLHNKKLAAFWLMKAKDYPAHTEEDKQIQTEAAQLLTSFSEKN
UniProt Q8NC42: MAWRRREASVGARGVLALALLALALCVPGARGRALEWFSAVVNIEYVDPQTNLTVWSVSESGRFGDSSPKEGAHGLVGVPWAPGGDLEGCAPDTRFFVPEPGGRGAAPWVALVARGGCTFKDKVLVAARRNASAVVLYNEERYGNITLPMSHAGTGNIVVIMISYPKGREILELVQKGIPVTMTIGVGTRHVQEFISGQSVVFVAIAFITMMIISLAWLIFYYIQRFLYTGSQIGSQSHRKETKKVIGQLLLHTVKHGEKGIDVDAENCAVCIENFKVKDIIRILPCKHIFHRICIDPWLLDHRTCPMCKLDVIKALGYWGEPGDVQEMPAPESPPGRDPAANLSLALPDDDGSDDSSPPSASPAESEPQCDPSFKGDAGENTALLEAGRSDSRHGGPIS
UniProt Q9UKL0, whole entry, looked up: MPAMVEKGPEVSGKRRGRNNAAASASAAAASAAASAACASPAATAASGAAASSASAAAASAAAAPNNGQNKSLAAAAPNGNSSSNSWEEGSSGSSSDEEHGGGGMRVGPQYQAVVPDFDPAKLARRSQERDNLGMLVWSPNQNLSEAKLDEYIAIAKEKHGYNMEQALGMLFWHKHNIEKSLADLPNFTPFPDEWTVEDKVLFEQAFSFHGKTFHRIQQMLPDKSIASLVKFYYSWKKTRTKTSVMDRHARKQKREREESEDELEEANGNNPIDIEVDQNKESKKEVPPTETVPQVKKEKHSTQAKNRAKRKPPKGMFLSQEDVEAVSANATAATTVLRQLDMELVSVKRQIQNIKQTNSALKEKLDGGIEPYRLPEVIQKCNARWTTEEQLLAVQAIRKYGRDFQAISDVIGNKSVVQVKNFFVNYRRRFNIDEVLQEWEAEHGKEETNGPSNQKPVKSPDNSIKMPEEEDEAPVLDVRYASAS
UniProt Q9BV68: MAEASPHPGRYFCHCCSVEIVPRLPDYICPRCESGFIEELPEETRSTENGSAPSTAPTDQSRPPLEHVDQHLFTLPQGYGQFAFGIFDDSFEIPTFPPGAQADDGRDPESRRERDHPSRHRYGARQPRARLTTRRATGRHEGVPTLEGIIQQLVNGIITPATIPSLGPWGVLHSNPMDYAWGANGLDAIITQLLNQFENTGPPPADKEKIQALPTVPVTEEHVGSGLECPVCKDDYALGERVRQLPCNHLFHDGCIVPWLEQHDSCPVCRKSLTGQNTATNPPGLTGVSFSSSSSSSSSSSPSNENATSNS
UniProt Q8NBN7: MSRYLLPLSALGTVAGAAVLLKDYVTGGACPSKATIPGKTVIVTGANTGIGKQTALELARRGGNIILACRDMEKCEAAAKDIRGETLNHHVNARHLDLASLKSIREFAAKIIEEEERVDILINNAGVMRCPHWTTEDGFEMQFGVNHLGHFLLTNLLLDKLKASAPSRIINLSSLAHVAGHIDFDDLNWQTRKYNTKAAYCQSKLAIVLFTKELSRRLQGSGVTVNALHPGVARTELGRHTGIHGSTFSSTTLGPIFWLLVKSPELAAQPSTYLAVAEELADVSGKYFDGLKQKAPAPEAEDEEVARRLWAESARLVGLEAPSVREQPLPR
UniProt P48382: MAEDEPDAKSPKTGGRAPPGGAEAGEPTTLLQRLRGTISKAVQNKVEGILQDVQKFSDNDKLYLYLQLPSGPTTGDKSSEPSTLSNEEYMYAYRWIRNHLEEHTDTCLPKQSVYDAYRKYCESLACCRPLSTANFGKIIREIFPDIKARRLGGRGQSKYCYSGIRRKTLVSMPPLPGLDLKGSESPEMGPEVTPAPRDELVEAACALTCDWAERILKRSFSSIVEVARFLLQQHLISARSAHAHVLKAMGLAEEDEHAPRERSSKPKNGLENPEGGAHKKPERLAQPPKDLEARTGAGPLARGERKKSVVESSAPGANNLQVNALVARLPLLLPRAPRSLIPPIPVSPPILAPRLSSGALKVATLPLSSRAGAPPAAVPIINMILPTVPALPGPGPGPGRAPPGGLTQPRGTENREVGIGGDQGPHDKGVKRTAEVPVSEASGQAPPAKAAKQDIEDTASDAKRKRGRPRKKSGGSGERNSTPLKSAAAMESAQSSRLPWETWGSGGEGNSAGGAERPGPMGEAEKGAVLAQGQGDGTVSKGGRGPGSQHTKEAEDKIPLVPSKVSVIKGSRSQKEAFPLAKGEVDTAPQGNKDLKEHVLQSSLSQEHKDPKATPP
UniProt P48380: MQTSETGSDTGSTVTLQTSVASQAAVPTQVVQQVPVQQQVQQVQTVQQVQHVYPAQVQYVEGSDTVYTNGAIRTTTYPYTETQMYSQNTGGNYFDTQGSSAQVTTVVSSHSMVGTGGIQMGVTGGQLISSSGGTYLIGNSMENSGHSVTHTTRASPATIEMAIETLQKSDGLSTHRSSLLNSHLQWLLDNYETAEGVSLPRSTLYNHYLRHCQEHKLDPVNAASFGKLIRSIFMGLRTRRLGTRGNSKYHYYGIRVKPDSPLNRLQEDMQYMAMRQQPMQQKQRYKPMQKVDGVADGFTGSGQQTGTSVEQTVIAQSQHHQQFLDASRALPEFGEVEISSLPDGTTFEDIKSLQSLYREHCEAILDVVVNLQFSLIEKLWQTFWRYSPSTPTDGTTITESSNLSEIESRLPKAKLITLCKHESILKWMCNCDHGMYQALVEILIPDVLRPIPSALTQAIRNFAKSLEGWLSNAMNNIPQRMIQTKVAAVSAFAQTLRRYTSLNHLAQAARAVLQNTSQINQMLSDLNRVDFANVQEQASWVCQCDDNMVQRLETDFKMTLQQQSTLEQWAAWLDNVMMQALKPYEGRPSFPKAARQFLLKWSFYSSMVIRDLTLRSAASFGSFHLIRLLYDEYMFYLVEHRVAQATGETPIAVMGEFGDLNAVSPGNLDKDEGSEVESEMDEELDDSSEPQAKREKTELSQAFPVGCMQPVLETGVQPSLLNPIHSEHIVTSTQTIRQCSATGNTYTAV
UniProt Q96PM5: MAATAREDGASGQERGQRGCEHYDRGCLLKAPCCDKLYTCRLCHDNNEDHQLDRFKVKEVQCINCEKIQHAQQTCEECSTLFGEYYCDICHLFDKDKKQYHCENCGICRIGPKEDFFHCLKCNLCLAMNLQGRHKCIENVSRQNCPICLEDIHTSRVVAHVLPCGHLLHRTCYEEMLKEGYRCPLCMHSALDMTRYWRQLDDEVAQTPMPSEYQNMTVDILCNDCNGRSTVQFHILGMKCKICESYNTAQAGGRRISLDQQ
UniProt O15258: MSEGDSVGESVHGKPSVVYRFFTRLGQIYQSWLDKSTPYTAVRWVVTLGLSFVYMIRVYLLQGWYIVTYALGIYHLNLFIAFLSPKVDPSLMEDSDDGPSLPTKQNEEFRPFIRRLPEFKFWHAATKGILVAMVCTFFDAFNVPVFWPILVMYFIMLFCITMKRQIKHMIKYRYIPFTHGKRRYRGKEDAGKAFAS
UniProt Q5VTB9: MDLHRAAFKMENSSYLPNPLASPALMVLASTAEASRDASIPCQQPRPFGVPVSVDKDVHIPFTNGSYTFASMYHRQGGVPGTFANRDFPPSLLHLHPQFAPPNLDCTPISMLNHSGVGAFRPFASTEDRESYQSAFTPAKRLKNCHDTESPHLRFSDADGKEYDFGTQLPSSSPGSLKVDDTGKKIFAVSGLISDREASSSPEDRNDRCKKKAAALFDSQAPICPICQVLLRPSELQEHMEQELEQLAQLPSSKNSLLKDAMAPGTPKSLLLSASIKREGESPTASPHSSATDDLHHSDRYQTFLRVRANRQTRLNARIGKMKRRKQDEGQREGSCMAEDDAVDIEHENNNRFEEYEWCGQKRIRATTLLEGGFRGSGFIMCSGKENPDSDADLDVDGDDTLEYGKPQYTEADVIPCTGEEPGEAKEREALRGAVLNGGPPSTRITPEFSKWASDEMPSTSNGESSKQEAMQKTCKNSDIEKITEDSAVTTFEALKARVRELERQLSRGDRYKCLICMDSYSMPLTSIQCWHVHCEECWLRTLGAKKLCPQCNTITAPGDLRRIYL
UniProt Q04864: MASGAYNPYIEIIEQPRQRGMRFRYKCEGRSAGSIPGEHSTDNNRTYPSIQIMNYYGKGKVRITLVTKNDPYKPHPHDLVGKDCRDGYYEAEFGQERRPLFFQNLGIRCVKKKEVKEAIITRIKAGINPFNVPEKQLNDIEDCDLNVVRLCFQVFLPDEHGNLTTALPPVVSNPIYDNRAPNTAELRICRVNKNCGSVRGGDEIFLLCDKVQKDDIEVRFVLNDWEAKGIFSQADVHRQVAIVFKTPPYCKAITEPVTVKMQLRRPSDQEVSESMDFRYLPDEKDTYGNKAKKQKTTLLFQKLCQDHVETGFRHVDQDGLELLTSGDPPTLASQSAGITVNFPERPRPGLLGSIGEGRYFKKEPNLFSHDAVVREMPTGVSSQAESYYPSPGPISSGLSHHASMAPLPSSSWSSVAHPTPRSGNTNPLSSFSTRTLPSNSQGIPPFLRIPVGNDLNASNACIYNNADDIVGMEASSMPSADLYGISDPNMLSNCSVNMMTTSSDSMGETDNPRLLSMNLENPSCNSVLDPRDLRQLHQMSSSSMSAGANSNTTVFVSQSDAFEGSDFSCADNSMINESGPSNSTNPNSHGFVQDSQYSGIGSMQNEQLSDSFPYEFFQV

What was measured:
Assay in all cases: log2 fold change, soluble protein after heating vs DMSO (PISA); higher = thermal stabilisation; K562 cells, 10 uM, 30 min; active = over 0.2 and 3.5 SD of the protein, either way, in both replicates (recomputed)
[1] = compound: C1=CC=C(C=C1)[C@H](COC2=CC3=C(C=C2)NC(=O)N3)NC(=O)C4=CC=CN(C4=O)CC5=CC(=C(C=C5)F)F
Summary of the method: (§1)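 K562 cells at 2×10^6 cells/mL were treated with 10 μM compound for 30 min. Aliquots were heated for 3 min across 48°C-58°C, pooled, and extracted in PBS with 0.5% NP-40 at 4°C; soluble protein was the supernatant after 21,000xg for 90 min. Soluble protein was quantified by TMTpro 16plex LC-MS/MS with channel sums equalised, and reported as log2 fold change in thermal stability against DMSO controls, with values from duplicates.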

[2] = compound: CC1=C(SC2=C1C(=N[C@H](C3=NN=C(N32)C)CC(=O)N)C4=CC=C(C=C4)Cl)C
Summary of the method: as §1

[3] = compound: CC1=C2C(=CC=C1)N=C(N(C2=O)C3=CC=CC=C3C)CN4C=NC5=C(N=CN=C54)N
Summary of the method: as §1

[4] = compound: Cc1sc2c(c1C)C(c1ccc(Cl)cc1)=N[C@@H](CC(=O)OC(C)(C)C)c1nnc(C)n1-2
Summary of the method: as §1

[5] = compound: c1ccc([C@@H]2C[C@H]2NC2CCNCC2)cc1
Summary of the method: as §1

RDH10 (UniProt Q8IZV5)
log2 fold change [1]: inactive: 0.113
log2 fold change [2]: inactive: 0.08
log2 fold change [3]: inactive: 0.098
log2 fold change [4]: inactive: -0.058
log2 fold change [5]: inactive: -0.031

RIMKLB (UniProt Q9ULI2)
log2 fold change [1]: inactive: 0.026

RBPJ (UniProt Q06330)
log2 fold change [1]: inactive: 0.015
log2 fold change [2]: inactive: 0.002
log2 fold change [3]: inactive: 0.004
log2 fold change [4]: inactive: 0.04
log2 fold change [5]: inactive: 0.018

RFESD isoform 2 (UniProt Q8TAC1)
log2 fold change [1]: inactive: 0.03
log2 fold change [2]: inactive: 0.061
log2 fold change [3]: inactive: -0.012
log2 fold change [4]: inactive: 0.034
log2 fold change [5]: inactive: 0.057

RMC1 (UniProt Q96DM3)
log2 fold change [1]: inactive: -0.009
log2 fold change [2]: inactive: 0.064
log2 fold change [3]: inactive: 0.1
log2 fold change [4]: inactive: 0.019
log2 fold change [5]: inactive: 0.063

RHOA (UniProt P61586)
log2 fold change [1]: inactive: 0.01
log2 fold change [2]: inactive: -0.058
log2 fold change [3]: inactive: -0.095
log2 fold change [4]: inactive: -0.041
log2 fold change [5]: inactive: 0.021

RMDN1 (UniProt Q96DB5)
log2 fold change [1]: inactive: 0.005
log2 fold change [2]: inactive: 0.069
log2 fold change [3]: inactive: 0.054
log2 fold change [4]: inactive: -0.06
log2 fold change [5]: inactive: -0.022

RNASEH2B (UniProt Q5TBB1)
log2 fold change [1]: inactive: -0.099
log2 fold change [2]: inactive: 0.079
log2 fold change [3]: inactive: 0.129
log2 fold change [4]: inactive: -0.047
log2 fold change [5]: inactive: -0.094

RNF149 (UniProt Q8NC42)
log2 fold change [1]: inactive: -0.021
log2 fold change [2]: inactive: 0.003
log2 fold change [3]: inactive: -0.026
log2 fold change [4]: inactive: 0.001
log2 fold change [5]: inactive: -0.026

RERE (UniProt Q9P2R6)
log2 fold change [1]: inactive: -0.051

RCOR1 (UniProt Q9UKL0)
log2 fold change [1]: inactive: -0.113
log2 fold change [2]: inactive: 0.021
log2 fold change [3]: inactive: 0.114
log2 fold change [4]: inactive: 0.006
log2 fold change [5]: active: 0.856

RELN (UniProt P78509)
log2 fold change [1]: inactive: 0.024
log2 fold change [2]: inactive: -0.006
log2 fold change [3]: inactive: 0.022
log2 fold change [4]: inactive: 0.016
log2 fold change [5]: inactive: -0.025

RIOK2 (UniProt Q9BVS4)
log2 fold change [1]: inactive: 0.034
log2 fold change [2]: inactive: -0.038
log2 fold change [3]: inactive: -0.119
log2 fold change [4]: inactive: 0.116
log2 fold change [5]: inactive: -0.009

RNF126 (UniProt Q9BV68)
log2 fold change [1]: inactive: -0.031
log2 fold change [2]: inactive: 0.028
log2 fold change [3]: inactive: 0.015
log2 fold change [4]: inactive: 0.018
log2 fold change [5]: inactive: 0.048

RDH13 (UniProt Q8NBN7)
log2 fold change [1]: inactive: -0.013
log2 fold change [2]: inactive: 0.052
log2 fold change [3]: inactive: 0.032
log2 fold change [4]: inactive: 0.013
log2 fold change [5]: inactive: -0.062

RFX5 (UniProt P48382)
log2 fold change [1]: inactive: -0.091

RMND5A (UniProt Q9H871)
log2 fold change [1]: inactive: 0.035
log2 fold change [2]: inactive: 0.008
log2 fold change [3]: inactive: 0.034
log2 fold change [4]: inactive: 0.024
log2 fold change [5]: inactive: -0.019

RETSAT (UniProt Q6NUM9)
log2 fold change [1]: inactive: 0.028
log2 fold change [2]: inactive: 0.114
log2 fold change [3]: inactive: 0.119
log2 fold change [4]: inactive: -0.15
log2 fold change [5]: inactive: 0.042

RFC3 (UniProt P40938)
log2 fold change [1]: inactive: -0.005
log2 fold change [2]: inactive: 0.028
log2 fold change [3]: inactive: 0.029
log2 fold change [4]: inactive: -0.019
log2 fold change [5]: inactive: -0.074

RFX3 (UniProt P48380)
log2 fold change [1]: inactive: -0.117

RNF167 (UniProt Q9H6Y7)
log2 fold change [1]: inactive: -0.025
log2 fold change [2]: inactive: -0.011
log2 fold change [3]: inactive: 0.002
log2 fold change [4]: inactive: -0.017
log2 fold change [5]: inactive: 0.001

RCHY1 (UniProt Q96PM5)
log2 fold change [1]: inactive: 0.012
log2 fold change [2]: inactive: 0.022
log2 fold change [3]: inactive: 0.034
log2 fold change [4]: inactive: 0.035
log2 fold change [5]: inactive: 0.007

RNF187 (UniProt Q5TA31)
log2 fold change [1]: inactive: -0.047
log2 fold change [2]: inactive: 0.07
log2 fold change [3]: inactive: -0.033
log2 fold change [4]: inactive: -0.083
log2 fold change [5]: inactive: -0.033

RINT1 (UniProt Q6NUQ1)
log2 fold change [1]: inactive: -0.004
log2 fold change [2]: inactive: -0.102
log2 fold change [3]: inactive: -0.107
log2 fold change [4]: inactive: 0.178
log2 fold change [5]: inactive: -0.02

RER1 (UniProt O15258)
log2 fold change [1]: inactive: 0.005
log2 fold change [2]: inactive: -0.005
log2 fold change [3]: inactive: -0.07
log2 fold change [4]: inactive: -0.045
log2 fold change [5]: inactive: 0.009

RNF220 (UniProt Q5VTB9)
log2 fold change [1]: inactive: 0.004
log2 fold change [2]: inactive: 0.072
log2 fold change [3]: inactive: 0.14
log2 fold change [4]: inactive: -0.045
log2 fold change [5]: inactive: 0.038

REL (UniProt Q04864)
log2 fold change [1]: inactive: 0.058
log2 fold change [2]: inactive: 0.048
log2 fold change [3]: inactive: 0.046
log2 fold change [4]: inactive: 0.037
log2 fold change [5]: inactive: 0.065
